PMC12667553, “TWF2 Drives Tumor Progression and Sunitinib Resistance in Renal Cell Carcinoma through Hippo Signaling Suppression” (Advanced Science, 2025)
Numbering of substitutions follows the chain as printed. Results are given in words; binding and its absence hold for the method and conditions named. Binding seen in cells or lysates may run through a third protein. Some results given as binding are weak or reduced against the parent protein; the word gives no strength. For some assays here: Sequences can lack the tags named with a protein.

Amino acid sequences for entries named in this document (tags omitted).
UniProt P46937: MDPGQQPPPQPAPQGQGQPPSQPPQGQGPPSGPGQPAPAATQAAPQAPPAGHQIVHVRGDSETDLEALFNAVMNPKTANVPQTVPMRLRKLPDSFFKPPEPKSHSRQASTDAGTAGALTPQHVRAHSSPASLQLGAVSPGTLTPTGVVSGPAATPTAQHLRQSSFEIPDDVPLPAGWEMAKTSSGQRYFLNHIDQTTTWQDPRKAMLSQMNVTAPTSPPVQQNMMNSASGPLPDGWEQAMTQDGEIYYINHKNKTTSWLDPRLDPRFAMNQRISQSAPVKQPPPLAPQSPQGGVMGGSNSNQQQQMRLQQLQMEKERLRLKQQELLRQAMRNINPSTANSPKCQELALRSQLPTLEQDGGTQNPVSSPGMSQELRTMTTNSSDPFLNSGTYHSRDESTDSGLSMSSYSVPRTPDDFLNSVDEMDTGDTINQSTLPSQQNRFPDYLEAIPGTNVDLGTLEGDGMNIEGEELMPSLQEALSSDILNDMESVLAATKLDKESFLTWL

What was measured:
[1] = biological target: T1, Flag-tagged TWF2 E120A, expressed in 293T cells (human) (UniProt Q6IBS0); test: co-IP; 293T cells cotransfected with Flag-TWF2 (wild type or alanine mutants) and YAP; precipitated with anti-Flag antibody
T1 sequence: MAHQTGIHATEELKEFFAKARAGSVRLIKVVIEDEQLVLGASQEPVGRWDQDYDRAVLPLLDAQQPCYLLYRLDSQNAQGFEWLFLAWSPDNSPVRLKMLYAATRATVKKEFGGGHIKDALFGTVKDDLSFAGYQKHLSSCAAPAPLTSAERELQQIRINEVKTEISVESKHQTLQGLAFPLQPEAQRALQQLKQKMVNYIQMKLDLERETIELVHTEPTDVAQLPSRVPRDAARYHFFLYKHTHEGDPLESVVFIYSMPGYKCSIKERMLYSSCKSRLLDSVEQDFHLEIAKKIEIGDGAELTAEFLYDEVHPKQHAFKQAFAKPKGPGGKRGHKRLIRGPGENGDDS

[2] = biological target: T2, Flag-tagged TWF2 H137A, expressed in 293T cells (human) (UniProt Q6IBS0); test: as above
T2 sequence: T1 sequence with A120E, H137A

[3] = biological target: T3, Flag-tagged TWF2 R96A, expressed in 293T cells (human) (UniProt Q6IBS0); test: as above
T3 sequence: T1 sequence with R96A, A120E

[4] = biological target: T4, Flag-tagged TWF2, wild type, expressed in 293T cells (human) (UniProt Q6IBS0); test: as above
T4 sequence: T1 sequence with A120E

[5] = biological target: T5, Flag-tagged TWF2 (Twinfilin actin-binding protein 2), wild type, overexpressed in 786-O cells (human) (UniProt Q6IBS0); test: co-IP; 786-O cells transfected with Flag-TWF2 and HA-tagged YAP constructs; precipitated with anti-Flag antibody, blotted with anti-HA and anti-Flag
T5 sequence: T1 sequence with A120E

[6] = biological target: T6, TWF2, endogenous in RCC cells (human (endogenous in 769-P, 786-O-R)) (UniProt Q6IBS0); test: co-IP; endogenous TWF2 and YAP in 769-P cell lysate
T6 sequence: T1 sequence with A120E

[7] = biological target: T6, TWF2, endogenous in RCC cells (human (endogenous in 769-P, 786-O-R)); test: co-IP; 786-O-R (sunitinib-resistant) cells treated with increasing concentrations of salvianolic acid E
[8] = biological target: T5, Flag-tagged TWF2 (Twinfilin actin-binding protein 2), wild type, overexpressed in 786-O cells (human); test: co-IP; overexpressed Flag-tagged TWF2 (wild type or M99A) and YAP in 786-O cell lysate; anti-Flag magnetic beads

Substance: HA-tagged YAP, wild type, expressed in 293T cells (from UniProt P46937 1-504)
- binding [1]: binds
- binding [2]: binds
- binding [3]: binds
- binding [4]: binds

Substance: HA-tagged wild-type YAP (full-length, 1-504), expressed in 786-O cells (from UniProt P46937 1-504)
- binding [5]: binds

Substance: Yes-associated protein (YAP), endogenous in RCC cells (from UniProt P46937 1-504)
- binding [6]: binds
- binding [7]: binds
- binding [8]: binds
